Data taken from publication PMC6336269.
No constants are given. Whether binding was seen depends on the method and setting. In cells and extracts the contact can be indirect. These calls come from enrichment with a bait or labelling near it, and not all partners need be listed. Sequences can lack the tags named with a protein.

Target: T1, TAP tagged Rio2 (S. cerevisiae), P40160
T1 chain: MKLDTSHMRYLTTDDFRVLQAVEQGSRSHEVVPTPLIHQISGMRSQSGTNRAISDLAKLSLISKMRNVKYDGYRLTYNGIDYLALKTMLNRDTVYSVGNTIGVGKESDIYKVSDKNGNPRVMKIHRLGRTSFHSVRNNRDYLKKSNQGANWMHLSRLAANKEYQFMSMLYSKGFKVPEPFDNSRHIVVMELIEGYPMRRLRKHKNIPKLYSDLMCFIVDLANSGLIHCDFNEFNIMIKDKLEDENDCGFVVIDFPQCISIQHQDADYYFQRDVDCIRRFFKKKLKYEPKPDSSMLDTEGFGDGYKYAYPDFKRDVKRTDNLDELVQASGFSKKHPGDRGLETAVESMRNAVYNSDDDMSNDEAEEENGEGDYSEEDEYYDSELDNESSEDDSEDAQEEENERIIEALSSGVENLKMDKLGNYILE
Assay: affinity purification with mass spectrometry; TAP tagged Rio2 with associated SSU precursors purified from yeast cellular extracts on rabbit immunoglobulin G coupled to magnetic beads; semi-quantitative mass spectrometry with iTRAQ 4plex; wild type cells and cells shifted to glucose for two or four hours to deplete rpS0, rpS2, rpS21, rpS3, rpS20 or rpS29
Conditions: remark: other sources report otherwise

B1: Rrp12, Q12754 1-1228 (protein)
chain: MDQDKVAFLLELEDKLAKIRSQVNSKLENQKHIAIILTAVEENIAGQATNDVSKNIVNYIISFMSLLDQAVDPSTHEIKDIQLASSSTYLLDLIFHYSPKVLLRSKFSEILTKIAPCITAEKANAPLIRAAIGCLESLLIAQDAQAWNNTYDLNVTPKRGLQGILELSLDVRPKVRKRALDAVHAVLLNPPVAPTAEHVAAVFVADFCDKQLAGILNDLSNLSNKQLKAQKTKEDINASVMRSLRLITSVVSTGQWPSSQIEPLCDVLLGVTKSSEQYLVSASFECFESMFKTMAETTISSGLAENKYLRVLDTIFALKPSNVDTLLTKSWIAVVIKGMSTYATHQPLKALRKIPGVFHIMCTYLASETPEVYQAASQCLISILSESVKDDLLLYTPSVDEKVFKNVDEIISQIAKTFIDFLSIRYSHCSREILKILVAAFNKFRYRSNPHFLKSLKIVDTWRVNEEQFMDLRNEIELVIGASISAMGPEMILAEAPLNLDNPSSERPGRAWLLPLIRDYTKNANLATFQNELAPYIKSFQSKFDKVPEESIQLRVFQTIVDQIWSTLPRFCELPMDLRESFTDEFASELSSLLYSEVELRTTICHALKVLAESNVSYAEESSSHNVLLLQRFPISEAQKNIEYLSTKSTNLLAVLFNVYTQTTPNARSYILETIDQYLKITSKEDLEKTFNNVCGLLKNSMNEESSGNVNKEKKKPQLTATLLDLIICMITYLPVSSYSALFSMFSLTVNSADALIQKRAYRIITKLSELKSGSTAVAQFISDIENVMVDSASSVQTSAKAARLTAIKTIVELLPLDHLDFIVRTVAEVILSTKDVNEKSRETAFDTLICMGRKMNEPNGIIKLFQIPGYDPTTPDQSSSISEFFKIISAGLIGESQHMVSSSITGYACLVFEFKNELDSGILMDIYDTIELYLTSNSREIVKSAIGFTKVCVLGLPEELMRPKVPELLLKLLRWSHEHTGHFKAKVKHIIERLIRRFGYDYIEANFPEEDRRLLTNIRKMRNRNKRKDEEVTTGVSDVAATKGSRFMSAFDEAVYGSDEENDNGSDQEENVAGGKMKNGAKQFIVESGDNPLDLLDSQTLAHISSTRPKKFNKNQNRARFNDDAFNFDSEGKLVVKGQPKPSTNVDDPLSAVTSGINAYLEAVKSGPVRGQRNKLKFRKNGKDSDEFGDDDDGEKDSRLMRGRVNQGNKIGKHNKKGPKFKSRKKL
binding: binds
